{
  "source": "PubChem BioAssay AID504834",
  "about": "(National Center for Advancing Translational Sciences (NCATS), 2011)",
  "note": "The campaign covered roughly 320,000 compounds. About 22,000 (6.9%) were called active. Inconclusive results, whose numbers are uncertain, are shown with a selection of clear calls. Calls follow the shape of the dose curve; as a rule, active = well fitted inhibition curve with a large enough effect; inconclusive = small, poorly fitted or top-dose-only effect, or another doubt; inactive = no such curve, though single readings can be large or run the other way. Potencies beside an inconclusive call are fits to weak or partial responses and may not hold up. % is scaled to controls: 0 for no effect and ±100 for the full control effect; potency is read from the fitted curve at half-maximal effect.",
  "data": [
    {"assay": "Primary qHTS for delayed death inhibitors of the malarial parasite plastid, 96 hour incubation", "conditions": "P. falciparum luciferase reporter growth; series mostly up to 28.7 µM; activity change, negative = inhibition: at the top concentration", "summary_of_the_method": "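Readout is luminescence from an integrated firefly luciferase in P. falciparum. Red cells, 2% hematocrit and 0.05% parasitemia final, were cultured with compound through two parasite generations (96 hours) at 37 C, 5% CO2.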", "values": [
      {"smiles": "CC(=O)N1CCc2cc(S(=O)(=O)N3CCc4ccccc4C3)ccc21", "Potency": "inconclusive: 0.738 µM [inhibitor, partial curve, poor fit]"},
      {"smiles": "Cc1nc(/N=C(\\N)N(C)C)[nH]c(=O)c1C", "activity change, negative = inhibition": "inactive: 40.6%"},
      {"smiles": "O=C(NCc1nc2ccccc2[nH]1)C1CCCCC1", "activity change, negative = inhibition": "inactive: 154%"},
      {"smiles": "COc1ccc(OCC(=O)NNC(=S)NC(=O)C2CCCCC2)cc1", "Potency": "inconclusive: 18.5 µM [inhibitor, single point]"},
      {"smiles": "C/C(=N\\NC(=O)c1c[nH]c2ccccc12)c1ccc(C)s1", "activity change, negative = inhibition": "inactive: -15.7%"},
      {"smiles": "CC(=O)c1ccc(NC(=O)C(C)NCc2ccc(Cl)cc2)cc1", "note": "(stereo unspecified)", "Potency": "inconclusive: 18.5 µM [inhibitor, partial curve, poor fit]"},
      {"smiles": "Cc1cccc(-n2ncc3c2CCCC3NC(=O)CCN2CCCO2)c1C", "note": "(stereo unspecified)", "Potency": "inconclusive: 3.7 µM [inhibitor, single point]"},
      {"smiles": "O=c1c2oc3ccccc3c2ncn1Cc1cccc(Cl)c1", "Potency": "inconclusive: 7.38 µM [inhibitor, single point]"},
      {"smiles": "CCCc1cc(=O)[nH]c(SCC(=O)N(CCOC)c2c(N)n(Cc3ccccc3)c(=O)[nH]c2=O)n1", "activity change, negative = inhibition": "inactive: 16.1%"},
      {"smiles": "Cc1ccc(Cn2ccc(=O)c(OCc3c(Cl)cccc3Cl)c2C)cc1", "Potency": "active: 4.15 µM"},
      {"smiles": "Cc1ccc(S(=O)(=O)N2CCOCC2)cc1C(=O)NCC1CCCCC1", "Potency": "inconclusive: 18.5 µM [inhibitor, single point]"},
      {"smiles": "CC(=O)c1ccc(NS(=O)(=O)c2ccccc2)cc1", "Potency": "inconclusive: 11.7 µM [inhibitor, single point]"},
      {"smiles": "COc1cc2cc(CCCOC(=O)c3ccc(F)cc3)oc(=O)c2cc1OC", "Potency": "inconclusive: 16.5 µM [inhibitor, single point]"},
      {"smiles": "Cc1cccc(C(=O)Nc2nnc(COc3ccccc3)s2)c1", "activity change, negative = inhibition": "inactive: 10.9%"},
      {"smiles": "N#Cc1ccc(N2Cc3ccccc3/C2=N/C(=O)Nc2ccc(Cl)cc2)cc1", "Potency": "inconclusive: 18.5 µM [inhibitor, single point]"},
      {"smiles": "O=C1C2CCCN2C(c2ccc(Br)cc2)N1c1ccc(F)cc1", "note": "(stereo unspecified)", "Potency": "inconclusive: 10.4 µM [inhibitor, single point]"},
      {"smiles": "C/C(=N\\OCC(=O)N/N=C/c1ccc(C)cc1O)c1cccs1", "activity change, negative = inhibition": "inactive: 108%"},
      {"smiles": "Cc1cc(C(=O)NCC(c2ccco2)N(C)C)no1", "note": "(stereo unspecified)", "Potency": "active: 9.28 µM"},
      {"smiles": "CC(C)CC(COCc1ccc(Cl)cc1)N1CCN(C(=O)c2ccc(Cl)cc2Cl)CCC1=O", "note": "(stereo unspecified)", "Potency": "inconclusive: 16.5 µM [inhibitor, single point]"},
      {"smiles": "CCn1c(-c2ccoc2C)n[nH]c1=S", "activity change, negative = inhibition": "inactive: -2.97%"},
      {"smiles": "O=C(OCn1ncc(Cl)c(Cl)c1=O)c1cccc(C(F)(F)F)c1", "Potency": "inconclusive: 0.0029 µM [inhibitor, full curve, poor fit]"}
    ]}
  ]
}
